Article PMC3539823 (Journal of medicinal chemistry, 2012)
In brackets after ≈: the same amount, converted by molar mass.

How the values were obtained:
[1] = mouse liver microsomes, phase II, UDPGA 2 mM
[2] = system: P493 human B cell xenograft; conditions: mouse, in vivo, ip
[3] = physchem; conditions: pH 7.4

In the case of `Nc1nnc(CCSCCc2nnc(NC(=O)Cc3ccccc3)s2)s1` [Compound 6, N-(5-{2-[2-(5-Amino-[1,3,4]thiadiazol-2-yl)-ethylsulfanyl]-ethyl}-[1,3,4]thiadiazol-2-yl)-2-phenyl-acetamide], the “loss of parent compound with UDGPA (glucuronidation)” value [1] is reported as “negligible loss of the parent compound”, the “toxicity following repeated intraperitoneal injection” value [2] is reported as “no apparent toxicity” and the solubility [3] is reported as 0.013 mg/mL (≈ 32 µM).
